Values from PubChem BioAssay AID1259254 (NCATS, 2017)

- Test: 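Genome-wide screen for genes that prevent DNA re-replication in cancer cells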 (primary screen)
- Cell system: human HCT116 colorectal cancer cells
- Reagents: single siRNA against human genes
- Duration: 3 days
- Measured: 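Nuclei stained with Hoechst and imaged; cell-cycle phase assigned by DNA content; G2 share scaled per plate, non-targeting siRNA 0%, GMNN siRNA 100%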
- Direction: G2 robust z-score and G2 cells, % of GMNN control: higher = more G2 cells, more excess DNA replication
- Active means: 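An siRNA counts as active if its G2 robust z-score lies at least 5 MADs above the screen median; here such calls match roughly 38% of GMNN control or more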
The deposit covers about 59,000 reagents; below is a random part of them. In the full data, about 1,550 (2.6%) are marked active. 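G2 share is only a proxy for re-replication; each gene was hit by three separate siRNAs, and active genes were retested.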 Entries without a mark were called inactive. Reagents against one gene are numbered here. Further read-outs or replicates are left out here. No sequences are given here. The record does not give: the amount of reagent.

Gene	siRNA no.	G2 robust z-score	G2 cells, % of GMNN control
REEP1	1	-0.249	1.21
REEP1	2	0.532	6.71
REEP1	3	1.65	14.6
ADAM11	1	-0.162	1.83
ADAM11	2	0.852	8.96
ADAM11	3	-1.16	-5.18
TRIM77	1	0.958	9.71
TRIM77	2	-0.594	-1.21
TRIM77	3	0.477	6.32
LINC02912	1	-0.757	-2.36
LINC02912	2	1.49	13.4
LINC02912	3	0.196	4.35
MRPL24	1	-0.191	1.63
MRPL24	2	-0.11	2.19
MRPL24	3	1.61	14.3
GPC3	1	2.53	20.8
GPC3	2	0.99	9.93
GPC3	3	0.494	6.44
NFKBIB	1	-0.478	-0.394
NFKBIB	2	0.143	3.97
NFKBIB	3	0.237	4.64
GSTO1	1	-0.493	-0.503
GSTO1	2	-0.711	-2.03
GSTO1	3	-0.4	0.156
ZSCAN9	1	0.492	6.43
ZSCAN9	2	0.325	5.25
ZSCAN9	3	-0.122	2.11
ILF2	1	0.746	8.22
ILF2	2	4.36	33.7
ILF2	3	0.0722	3.48

3 of these entries, reformatted:
{"Gene":"ZSCAN9","siRNA no.":3,"G2 robust z-score":-0.122,"G2 cells, % of GMNN control":2.11}
{"Gene":"ILF2","siRNA no.":1,"G2 robust z-score":0.746,"G2 cells, % of GMNN control":8.22}
{"Gene":"ILF2","siRNA no.":2,"G2 robust z-score":4.36,"G2 cells, % of GMNN control":33.7}

Additional records:
Gene	siRNA no.	G2 robust z-score	G2 cells, % of GMNN control
GNG2	1	-1.17	-5.27
GNG2	2	0.0099	3.04
GNG2	3	-1.14	-5.02
HCK	1	-1.73	-9.21
HCK	2	-1.08	-4.66
HCK	3	0.799	8.59
LHFPL7	1	-0.305	0.819
LHFPL7	2	0.43	5.99
LHFPL7	3	1.92	16.5
SMAD3	1	0.977	9.84
SMAD3	2	1.14	11
SMAD3	3	0.862	9.03
TRIM67	1	-0.866	-3.12
TRIM67	2	1.23	11.6
TRIM67	3	0.543	6.79
CCNE2	1	-0.489	-0.473
CCNE2	2	0.281	4.94
CCNE2	3	-0.943	-3.67
IFNA1	1	-0.803	-2.68
IFNA1	2	-0.0103	2.9
IFNA1	3	0.843	8.9
ANAPC13	1	4.72	36.2
ANAPC13	2	0.203	4.4
ANAPC13	3	0.233	4.61
HOMER1	1	0.0118	3.05
HOMER1	2	0.368	5.56
HOMER1	3	-0.211	1.48
CTNNA1	1	1.75	15.3
CTNNA1	2	-0.103	2.24
CTNNA1	3	0.221	4.52
COL4A3	1	-0.331	0.635
COL4A3	2	-0.0677	2.49
COL4A3	3	-0.285	0.961
S100A11P1	1	0.81	8.67
S100A11P1	2	-0.525	-0.724
S100A11P1	3	-0.759	-2.38
C15orf40	1	-0.456	-0.239
C15orf40	2	0.011	3.05
C15orf40	3	7.77 (active)	57.6
